Source: publication PMC5686162, “Non-canonical activation of OmpR drives acid and osmotic stress responses in single bacterial cells” (Nature Communications, 2017)
For at least one entry, the source does not settle the construct or the ends of the probe. A negative result means that nothing was seen under these conditions. Protein sequences can lack the tags named with them.

Target: T1, OmpR (UniProt P0AA19)
T1 sequence (looked up, limits assumed): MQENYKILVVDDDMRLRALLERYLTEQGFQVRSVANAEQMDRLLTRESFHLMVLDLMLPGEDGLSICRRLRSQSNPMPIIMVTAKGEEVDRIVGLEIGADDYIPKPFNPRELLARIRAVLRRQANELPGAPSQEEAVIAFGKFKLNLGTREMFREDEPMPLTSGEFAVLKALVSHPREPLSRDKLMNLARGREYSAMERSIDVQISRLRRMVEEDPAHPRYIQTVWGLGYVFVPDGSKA
Test: EMSA
Details: 1 mM Mg2+, poly(dI-dC), EMSA: 10 mM Tris pH 7.5, 50 mM KCl, 2.5% glycerol, 1 mM MgCl2, 0.05% NP-40, 1 ug poly(dI-dC), 10 fmol DNA in 15 ul, temperature not given, recombinant protein, protein details: His (pET15b), label: biotin 5' end, probe letters rebuilt from the primers and the genome

“AAGGTGGCTCCTACCCGTGATCCCTTGACGGAACTAGCAAGTCAAAGCCTGGTTCCGCCGCTTTATCGCTGCGGTAAATAACGCAGCGGGTTTACGGATTTCCCCTTGTAACGAATTTCAAAATGCAAGCGTGTAGAGCTGGTGCCGGTGCTACCCATAGTAGCGATTTTTTGCCCCGCCTTAACTTCCTGTTGTTCCCGGACCAGCATCGTATCATTATGGGCGTAGGCACTCAGGTAATCATCGTTATGTTTGATGATAATAAGATTACCGTAACCACGCAGTGCGTTACCGGCATATACGACGCGCCCATCAGCGGTTGCGACGATAGCCTGTCCCTTACTGCCTGCAATGTCGATCCCTTTATTGCCCCCTTCGGAAGCGCCAAAGTTTTCGATCACTTTGCCATCCGTCGGCCAG (double strand) [rpoS upstream region]”: binds (100-fold unlabeled DNA as competitor).

“AGACATTGAGCTTCTCCCTTCAGGTTGAACACCCTTTAAGCGTAGACACTTTTACTACCGTAAGAGGGAGAATCAGAACGATCCTTATGCTTCGCCCGTATTCACAACAGAGTTAACTAGCCATGAAGGTTATTTTTCTTGCCGTGCGACGGTGGTGACGTTGCGCGTCCGGTAGTCGCCATCGGAAAGCTTACGCGTCAGACGTAAGGTTGCCGTCTCGCGAGCCAGCAGATGCTGCCAGTCACTTTCAAGACGAGACATAATTTTGTCTCGTAATTCAGGATGCTGCTCGATAATGGCATTGATGGTCGCGCCATAAATCTCCTCTTTGACCTGTAACGCATA (double strand) [yghA (also printed yhgA) upstream region]”: no binding.
